In all, about 140,000 compounds went through this assay and about 4,300 (3.1%) were called active. The inconclusive results got no clear call from the source; some entries with a clear call stand among them for comparison.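 The calls were made as follows: active = readout at or below -70, meaning at least 70% loss of cells showing the perinucleolar compartment, a nuclear body marking cancer cells; inconclusive = readout between -30 and a set limit; inactive = the rest.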
Assay: High Content Assay for Compounds that inhibit the Assembly of the Perinucleolar Compartment;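 also: plate controls were DMSO wells for no effect and camptothecin positive control wells for full effect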
Conditions: PC3M PTB-GFP, PNC prevalence imaging, 16 h; at 10 µM; active compounds read low
How it was run: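 Read-out is percentage of cells bearing a perinucleolar compartment, from automated 20x imaging of fixed, Hoechst-stained PC3M PTB-GFP cells. Cells were seeded 4 h, then exposed 16 h to compound (23 nl of library stock) in duplicate plates.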
For `CCCCCCN=CC1=C(O)C(C(=O)OC)C(C)(C)CC1=O` (stereo not given), the activity change (PNC), negative = inhibition was inconclusive: -63.5%.
In the case of `O=C1C2C3CCCC3=C3CCCC3C2C(=O)N1c1ccccc1` (stereo not given), the activity change (PNC), negative = inhibition was inconclusive: -64.4%.
With `COC(=O)[C@@H](NC(=O)Nc1ccc2c(c1)OCCO2)C(C)C` the activity change (PNC), negative = inhibition was inconclusive: -62.9%.
With `Cn1c(CSCc2ccc(Cl)c(Cl)c2)nnc1SCC(=O)Nc1nccs1` the activity change (PNC), negative = inhibition was inconclusive: -52.1%.
With `O=C1c2ccccc2CCC12N=NCC2c1ccc(Br)cc1` (stereo not given) the activity change (PNC), negative = inhibition was inconclusive: -53.9%.
In the case of `Cc1ccc(NC(=O)CC2C(=O)N(Cc3ccccc3)C(=S)N2NC(=O)c2cccc(F)c2)c(C)c1` (stereo not given), the activity change (PNC), negative = inhibition was active: -107%.
With `CCC(=O)NCCCCNC(=O)CC` the activity change (PNC), negative = inhibition was inactive: 23.7%.
In the case of `Cc1c(Cl)cccc1-c1ccc(C(=O)N2CCN(c3ccc([N+](=O)[O-])cc3)CC2)o1`, the activity change (PNC), negative = inhibition was inconclusive: -30.3%.
For `CN1C(=S)SC(N2OC3C(=O)N(c4ccccc4)C(=O)C3C2c2ccccc2)C1(C)C` (stereo not given), the activity change (PNC), negative = inhibition was inactive: -26.6%.
For `CCOc1cc(/C=N\NC(=O)Cc2ccccc2)ccc1OCC(=O)Nc1ccc(C)c(C)c1`, the activity change (PNC), negative = inhibition was inconclusive: -71.8%.
For `Cc1cc(=O)oc2cc(OCc3cc4c(cc3Cl)OCO4)ccc12`, the activity change (PNC), negative = inhibition was inconclusive: -44.2%.
In the case of `Cc1noc(NS(=O)(=O)c2ccc(NC(=O)C34CCC(CC3)C4)cc2)c1C`, the activity change (PNC), negative = inhibition was active: -120%.
In the case of `CC1Cc2ccccc2N1C(=O)CSc1nc(-c2ccccc2)cs1` (stereo not given), the activity change (PNC), negative = inhibition was inconclusive: -38.2%.
With `NCCc1nnc(SCc2ccccc2)o1` the activity change (PNC), negative = inhibition was inconclusive: -50.5%.
In the case of `COc1ccc(OC)c(C(C)NC(=O)c2ccco2)c1` (stereo not given), the activity change (PNC), negative = inhibition was inconclusive: -30.2%.
For `O=C(O)/C=C/C(=O)N1CCN(c2ccccc2F)CC1`, the activity change (PNC), negative = inhibition was inconclusive: -61.3%.
In the case of `CCNc1ccc(S(=O)(=O)C(F)(F)F)cc1NC(=O)C12CCC(CC1)C2`, the activity change (PNC), negative = inhibition was inconclusive: -68.7%.
For `O=S(=O)(Nc1cccc2ncccc12)c1cccs1`, the activity change (PNC), negative = inhibition was inconclusive: -41.1%.
For `CCCCC(=O)NCCc1cc2c(OC)ccc(OC)c2[nH]c1=O`, the activity change (PNC), negative = inhibition was inactive: 52%.
In the case of `CCOC(=O)c1sc2cc([N+](=O)[O-])cc(SCC(=O)OC)c2c1N`, the activity change (PNC), negative = inhibition was inactive: 14.3%.
For `C=CCOc1ccc(C2CC(C)=NN2c2ccccc2)cc1` (stereo not given), the activity change (PNC), negative = inhibition was inconclusive: -67.9%.
With `Cc1onc(-c2c(F)cccc2Cl)c1C(=O)OCC(=O)NC(c1ccccc1)c1ccccc1` the activity change (PNC), negative = inhibition was inconclusive: -37.3%.
With `CCCS(=O)(=O)c1nc(S(=O)(=O)c2ccc(C)cc2)c(N2CCc3ccccc3C2)s1` the activity change (PNC), negative = inhibition was inconclusive: -38.7%.
With `O=C(CCc1ccccc1)NCCC1=CCCCC1` the activity change (PNC), negative = inhibition was inconclusive: -34%.
For `O=c1cc(-c2ccccc2)nc(N2CCCCC2)[nH]1`, the activity change (PNC), negative = inhibition was inconclusive: -60.6%.
